Data from PubChem BioAssay AID2551 (National Center for Advancing Translational Sciences (NCATS), 2010).
Among all 310,000 compounds or so, about 17,000 (5.5%) were called active. The inconclusive results got no clear call from the source; some entries with a clear call stand among them for comparison. The call rests on the fitted dose curve; in most records, active means well fitted inhibition curve with a large enough effect; inconclusive means small, poorly fitted or top-dose-only effect, or effect the other way; inactive means no such curve, though single readings can be large or run the other way. A potency beside an inconclusive call is a rough fit, not a confirmed value.

Amino acid sequences for entries named in this document (tags omitted). A change or cut given only in a name is not applied to a line headed by its entry.
UniProt P51450: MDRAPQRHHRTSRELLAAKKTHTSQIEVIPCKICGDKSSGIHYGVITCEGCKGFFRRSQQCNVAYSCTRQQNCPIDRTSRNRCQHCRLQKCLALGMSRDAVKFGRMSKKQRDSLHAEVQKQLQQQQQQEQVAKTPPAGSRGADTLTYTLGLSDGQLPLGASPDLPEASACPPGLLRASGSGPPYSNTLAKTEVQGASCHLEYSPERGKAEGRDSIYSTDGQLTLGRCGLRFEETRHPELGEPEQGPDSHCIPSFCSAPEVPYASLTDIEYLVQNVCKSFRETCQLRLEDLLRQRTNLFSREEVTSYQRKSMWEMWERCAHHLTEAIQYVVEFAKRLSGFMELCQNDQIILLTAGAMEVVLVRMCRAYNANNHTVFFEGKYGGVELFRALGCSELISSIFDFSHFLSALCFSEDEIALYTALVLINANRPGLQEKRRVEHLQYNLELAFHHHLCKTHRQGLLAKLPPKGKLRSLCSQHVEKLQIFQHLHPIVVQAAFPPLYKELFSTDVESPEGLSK

target: Nuclear receptor ROR-gamma (Mus musculus) (UniProt P51450); assay: qHTS for inhibitors of ROR gamma transcriptional activity; details: Drosophila S2 Gal4-RORgamma UAS-luciferase reporter, 20 h; series mostly up to 53.6 µM; further: nearly all actives have a fitted effect of over 60% in size
Summary of the method: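 Drosophila Schneider cells stably carrying a metallothionein-driven Gal4 DBD–ROR gamma fusion and a UAS-Photinus luciferase reporter were exposed to compound for 1 hr, then induced with copper sulfate (700 uM final) for 20 hr at ambient temperature before luminescence reading.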
Potency means the concentration at half of the fitted maximal effect.

Row | SMILES | Potency
1 | CCN1CCN(C(c2cccs2)C(C)NC(=S)Nc2cccc(C)c2C)CC1 (stereo not drawn) | active: 11.2 µM
2 | COc1cc(Cl)c(S(=O)(=O)n2cnc(C)c2)cc1Cl | inconclusive: 8.91 µM [activator, partial curve]
3 | O=C(Oc1ccccc1-c1nnco1)c1ccc(Cl)cc1 | inconclusive: 35.5 µM [inhibitor, single point]
4 | CCOc1ccc(-c2nnc(SCC(=O)Nc3cc(C)on3)o2)cc1 | inconclusive: 10 µM [inhibitor, partial curve]
5 | NS(=O)(=O)c1ccc(NC(=O)CSc2nc3ccccc3nc2N2CCOCC2)cc1 | inconclusive: 12.6 µM [inhibitor, single point]
6 | Cc1cccc(-c2cccc(NC(=O)C3CCCN(C(=O)c4ocnc4C)C3)c2)c1 (stereo not drawn) | inconclusive: 12.6 µM [activator, partial curve, poor fit]
7 | O=C1COc2ccc(S(=O)(=O)CCC(=O)N3CCN(c4cccc(Cl)c4)CC3)cc2N1 | inconclusive: 35.5 µM [activator, single point]
8 | CC1C=CCC2C(=O)N(c3cccc(C(=O)NCCc4ccccc4)c3)C(=O)C12 (stereo not drawn) | inactive
9 | O=C(O)CCSc1nnnn1-c1ccccc1 | inconclusive: 0.1 µM [inhibitor, full curve, poor fit]
10 | Cc1cc(C)c2nc(NCCCNC(=S)NCCCN(C)C)c(C#N)cc2c1 | inconclusive: 17.8 µM [inhibitor, single point]
11 | COc1cccc(N2CC(O)=C(c3ccccc3)C2=N)c1 | inactive
12 | Cc1ccc(-c2csc(/C(C#N)=C(\O)CCl)n2)cc1 | inconclusive: 17.8 µM [inhibitor, single point]
13 | O=C(O)CC1CCC(=C(Cl)Cl)C1 (stereo not drawn) | inconclusive: 28.2 µM [inhibitor, single point]
14 | Cc1cc(C(C)(C)C)oc1C(=O)Nc1ccc(CC(=O)O)cc1 | inconclusive: 15.8 µM [inhibitor, partial curve, poor fit]
15 | CCOC(=O)c1cc(OC(=O)c2ccccc2Br)n(-c2ccccc2)n1 | inconclusive: 5.62 µM [activator, partial curve, poor fit]
16 | CCC(C)n1c(-c2cc(OC)c(OC)c(OC)c2)nc2nc3ccccc3nc21 (stereo not drawn) | inconclusive: 17.8 µM [inhibitor, single point]
17 | Cc1ccc(C)c(NC(=S)NCc2ccc3c(c2)OCO3)c1 | inconclusive: 8.91 µM [inhibitor, partial curve, poor fit]
18 | CCCCCCC(=O)Nc1nc(C)c(-c2csc(Nc3ccccc3OC)n2)s1 | inconclusive: 10 µM [inhibitor, partial curve, poor fit]
19 | COc1ccc(C2=NN3C(=O)c4c(ccc(OC)c4OC)C3C2)cc1 (stereo not drawn) | inconclusive: 35.5 µM [activator, single point]
20 | O=C(Oc1ccc2c(c1)O/C(=C\c1ccncc1)C2=O)c1cccs1 | inconclusive: 8.91 µM [inhibitor, partial curve, poor fit]
21 | CCOc1nc(NC(=O)NS(=O)(=O)Oc2cccc(Cl)c2)nc(-c2ccccc2)n1 | inactive
22 | Cc1ccc(F)c([C@H]2[C@H]3C=CC[C@@H](C)[C@@H]3C(=O)N2Cc2ccccc2)c1 | inconclusive: 15.8 µM [activator, single point]
23 | CCc1ccc(S(=O)(=O)/N=C2/C=C(Sc3ncn[nH]3)C(=O)c3ccccc32)cc1 | active: 12.6 µM
24 | CCCc1cc(=O)[nH]c(Nc2ccc(OC)c(Cl)c2)n1 | inconclusive: 17.8 µM [activator, single point]
25 | c1ccc(C[n+]2cccc(-c3ccccc3)c2)cc1 | inconclusive: 20 µM [activator, partial curve, poor fit]

Quoted at random: 2 records from the list.
Row | SMILES | Potency
17 | Cc1ccc(C)c(NC(=S)NCc2ccc3c(c2)OCO3)c1 | inconclusive: 8.91 µM [inhibitor, partial curve, poor fit]
4 | CCOc1ccc(-c2nnc(SCC(=O)Nc3cc(C)on3)o2)cc1 | inconclusive: 10 µM [inhibitor, partial curve]

Carrying on:

Row | SMILES | Potency
26 | O=C(CN1CCN(Cc2ccc3c(c2)OCO3)CC1)N1CCc2[nH]c3ccc(F)cc3c2C1 | inconclusive: 6.31 µM [activator, single point]
27 | Cc1ccccc1NC(=O)CSCc1nc(N)nc(Nc2ccccc2C)n1 | inconclusive: 15.8 µM [activator, single point]
28 | Cc1ccccc1Nc1c(-c2cccnc2)nc2cccc(C)n12 | inactive
29 | CCCc1cc(=O)[nH]c(N/N=C/C=C\c2ccccc2)n1 | active: 7.08 µM
30 | CC1C(=NO)C(C)C(c2ccccc2)NC1c1ccccc1 (stereo not drawn) | inactive
31 | Cc1cc(C(=O)NCCN2CCCCC2C)n(-c2ccccc2)n1 (stereo not drawn) | inconclusive: 15.8 µM [inhibitor, single point]
32 | Nc1nc(CN2CCc3ccccc3C2)nc(Nc2ccccc2)n1 | inconclusive: 17.8 µM [inhibitor, partial curve]
33 | CC(C)=CCc1c(O)c(CC=C(C)C)c2occ(-c3ccc(O)cc3)c(=O)c2c1O | inconclusive: 0.398 µM [activator, partial curve]
34 | CSc1ncccc1C(=O)Nc1ccc(S(=O)(=O)NC2=NCCCCC2)cc1 | inactive
35 | Cc1ncsc1CCOC(=O)c1ccc(N2CCOCC2)c([N+](=O)[O-])c1 | inconclusive: 35.5 µM [inhibitor, single point]
36 | COc1ccc(-c2cc(-c3c(O)c(OC)c4occc4c3OC)[nH]n2)cc1OC | active: 7.94 µM
37 | CCn1c(C)c(CS(=O)(=O)c2ccccc2)[nH]c1=O | inconclusive: 20 µM [inhibitor, single point]
38 | CN(C)c1cccc(C(=O)NCc2ccc(Cl)cc2)c1 | inactive
39 | COc1cc(OC)cc(-c2cc(N)n(S(=O)(=O)c3cccc4nsnc34)n2)c1 | inconclusive: 12.6 µM [activator, partial curve, poor fit]
40 | Clc1ccc(N=NN2CCOCC2)cc1 | inconclusive: 12.6 µM [activator, single point]
41 | COc1ccc(-c2nc3ccccc3n2Cc2ccc(C)cc2)cc1 | active: 12.6 µM
42 | CCOC(=O)c1c(C)c(C(=O)NCc2ccco2)c(C)n1Cc1ccccc1 | inactive
43 | c1ccc(-c2noc(-c3ccco3)n2)nc1 | inconclusive: 14.1 µM [inhibitor, single point]
44 | C/C(=N\Nc1nc(C)cc(-c2ccccc2)n1)c1ccccc1 | active: 3.55 µM
45 | O=C(Nc1ccc(Cl)c(Cl)c1)c1ccc(Cn2cc(Cl)cn2)cc1 | inconclusive: 1.41 µM [activator, partial curve]
46 | CCn1c2ccccc2c2cc(NC(=O)c3cc(C)on3)ccc21 | inactive
47 | Cc1ccc(Nc2c([N+](=O)[O-])ccc3nonc23)c(C)c1 | inactive
48 | Cn1nccc1C(=O)Nc1ccn(C23CC4CC(CC(C4)C2)C3)n1 | inconclusive: 28.2 µM [activator, single point]
49 | CCOc1ccc(NC(=O)C(c2ccccn2)N(C(=O)CCl)c2ccc(OC)cc2)cc1 (stereo not drawn) | inconclusive: 14.1 µM [inhibitor, single point]
50 | CCOC(=O)c1ccc(NC(=O)CN(c2ccc(C)cc2)S(=O)(=O)c2c(C)n[nH]c2C)cc1 | inconclusive: 35.5 µM [activator, single point]

Row | SMILES | Potency
51 | Cc1nnc(NC(=O)C2CCN(c3cnccn3)CC2)s1 | inactive
52 | Cc1nc2ccccc2nc1OCC(=O)Nc1ccccc1 | inactive
53 | Cc1cc(C)n(C(=O)c2cccc([N+](=O)[O-])c2)n1 | inactive
54 | CN(C)C(=S)NC(=O)C(c1ccccc1)c1ccccc1 | active: 1.41 µM
55 | COc1ccc(-n2nc3c(c2NC(=O)c2ccc(Br)o2)CS(=O)(=O)C3)cc1 | inactive
56 | Cc1ccc(-c2c[nH]c(=S)n2-c2ccccc2F)cc1 | active: 1.58 µM
57 | CC1COc2ccccc2N1C(=O)c1ccc(Cl)nc1 (stereo not drawn) | inactive
58 | O=C(Oc1ccc(-c2nnco2)cc1)N(c1ccccc1)c1ccccc1 | inconclusive: 10 µM [activator, single point]
59 | Cc1ccc(S(=O)(=O)CC(c2ccccc2)N2CCCCC2)cc1 (stereo not drawn) | inactive
60 | COc1ccc(S(=O)(=O)Cc2ccc(C(=O)NCc3ccccc3OC)o2)cc1 | inactive
61 | CN(c1ccccc1)S(=O)(=O)c1ccc(Cl)c(C(=O)Nc2ccc(-c3nc4ccccc4[nH]3)cc2)c1 | inconclusive: 1.12 µM [activator, single point]
62 | O=C(CSc1nc2ccccc2[nH]1)Nc1ccc2c(c1)CCC2 | inactive
63 | O=C(C1CCC(Cn2c(=S)[nH]c3ccccc3c2=O)CC1)N1CCN(c2ccccn2)CC1 (stereo not drawn) | active: 5.62 µM
64 | c1cncc(-c2ccc3ncnc(NCCN4CCOCC4)c3c2)c1 | inactive
65 | CCOC(=O)c1csc(NC(=O)c2ccc(OCC)cc2)n1 | inconclusive: 17.8 µM [inhibitor, single point]
66 | COc1ccc2c(CC#N)c[nH]c2c1 | inactive
67 | COc1cccc(C(=O)Nc2c(C(N)=O)oc3ccccc23)c1 | inconclusive: 22.4 µM [activator, single point]
68 | O=C(Nc1ccccc1)c1cccc(N2C(=O)C3C4C=CC(C4)C3C2=O)c1 (stereo not drawn) | inconclusive: 14.1 µM [activator, single point]
69 | O=C(NS(=O)(=O)Oc1ccc(Cl)cc1)OC[C@@H]1CCCN2CCCC[C@H]12 | inactive
70 | CCOc1ccc(-n2c(-c3ccccc3)c[n+]3c2CCCCC3)cc1 | inconclusive: 35.5 µM [inhibitor, single point]
71 | Cc1ccccc1C(=O)Nc1ccccc1N1CCCCC1 | inconclusive: 11.2 µM [activator, partial curve]
72 | O=C(N/N=C/c1ccc(Br)s1)c1ccccn1 | inconclusive: 3.55 µM [inhibitor, single point]
73 | Cc1nc(Cl)sc1C(=O)NC(C)c1ccc(Cl)cc1 (stereo not drawn) | inconclusive: 10 µM [activator, single point]

Arranged by molar mass (ascending): part of the list above
Row | SMILES | Potency
14 | Cc1cc(C(C)(C)C)oc1C(=O)Nc1ccc(CC(=O)O)cc1 | inconclusive: 15.8 µM [inhibitor, partial curve, poor fit]
62 | O=C(CSc1nc2ccccc2[nH]1)Nc1ccc2c(c1)CCC2 | inactive
49 | CCOc1ccc(NC(=O)C(c2ccccn2)N(C(=O)CCl)c2ccc(OC)cc2)cc1 (stereo not drawn) | inconclusive: 14.1 µM [inhibitor, single point]
